In the test the target is MHC-1 (MHC class I molecules) on murine dendritic cell line DC2.4 cells (mouse). In words: competition with OVA peptide 1 for MHC-1 on DC2.4 cells, flow cytometry. On the technique in general: In flow cytometry, cells or beads pass a laser one at a time.

These results are taken from patent US20230144876A1 (UNIVERSITY OF KITAKYUSHU, published 2023).

These are yes or no findings as the source states them, for the method shown. Some results given as binding are weak or reduced against the parent protein; the word gives no strength.

Turning to CVYDFFVWL [C-TRP2-8 (cysteine added to the N-terminus of residues 181 to 188 of mTRP2)], the binding entry is reported as “binds”.
